{"sequences": {"note": "The chains behind the UniProt entries cited, without tags or fusion partners. Where a name states a change or a piece, a line headed by the entry shows the natural chain unless it says otherwise.", "UniProt Q14677": "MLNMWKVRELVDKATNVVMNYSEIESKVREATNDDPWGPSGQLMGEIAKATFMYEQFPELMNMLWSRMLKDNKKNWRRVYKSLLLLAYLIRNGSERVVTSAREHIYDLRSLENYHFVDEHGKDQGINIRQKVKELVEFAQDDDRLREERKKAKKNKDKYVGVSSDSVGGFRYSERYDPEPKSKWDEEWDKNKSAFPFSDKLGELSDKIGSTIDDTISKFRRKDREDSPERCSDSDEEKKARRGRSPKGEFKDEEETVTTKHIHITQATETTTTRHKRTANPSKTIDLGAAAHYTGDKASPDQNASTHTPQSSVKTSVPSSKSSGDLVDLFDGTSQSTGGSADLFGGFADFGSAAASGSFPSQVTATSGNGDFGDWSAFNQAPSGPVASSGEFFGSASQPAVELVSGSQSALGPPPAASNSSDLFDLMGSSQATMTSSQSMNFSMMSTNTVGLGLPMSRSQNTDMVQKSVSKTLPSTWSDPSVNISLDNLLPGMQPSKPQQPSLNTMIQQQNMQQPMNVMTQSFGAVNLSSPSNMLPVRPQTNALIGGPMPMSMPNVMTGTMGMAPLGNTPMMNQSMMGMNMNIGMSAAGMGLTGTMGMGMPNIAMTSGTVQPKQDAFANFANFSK", "UniProt Q09666": "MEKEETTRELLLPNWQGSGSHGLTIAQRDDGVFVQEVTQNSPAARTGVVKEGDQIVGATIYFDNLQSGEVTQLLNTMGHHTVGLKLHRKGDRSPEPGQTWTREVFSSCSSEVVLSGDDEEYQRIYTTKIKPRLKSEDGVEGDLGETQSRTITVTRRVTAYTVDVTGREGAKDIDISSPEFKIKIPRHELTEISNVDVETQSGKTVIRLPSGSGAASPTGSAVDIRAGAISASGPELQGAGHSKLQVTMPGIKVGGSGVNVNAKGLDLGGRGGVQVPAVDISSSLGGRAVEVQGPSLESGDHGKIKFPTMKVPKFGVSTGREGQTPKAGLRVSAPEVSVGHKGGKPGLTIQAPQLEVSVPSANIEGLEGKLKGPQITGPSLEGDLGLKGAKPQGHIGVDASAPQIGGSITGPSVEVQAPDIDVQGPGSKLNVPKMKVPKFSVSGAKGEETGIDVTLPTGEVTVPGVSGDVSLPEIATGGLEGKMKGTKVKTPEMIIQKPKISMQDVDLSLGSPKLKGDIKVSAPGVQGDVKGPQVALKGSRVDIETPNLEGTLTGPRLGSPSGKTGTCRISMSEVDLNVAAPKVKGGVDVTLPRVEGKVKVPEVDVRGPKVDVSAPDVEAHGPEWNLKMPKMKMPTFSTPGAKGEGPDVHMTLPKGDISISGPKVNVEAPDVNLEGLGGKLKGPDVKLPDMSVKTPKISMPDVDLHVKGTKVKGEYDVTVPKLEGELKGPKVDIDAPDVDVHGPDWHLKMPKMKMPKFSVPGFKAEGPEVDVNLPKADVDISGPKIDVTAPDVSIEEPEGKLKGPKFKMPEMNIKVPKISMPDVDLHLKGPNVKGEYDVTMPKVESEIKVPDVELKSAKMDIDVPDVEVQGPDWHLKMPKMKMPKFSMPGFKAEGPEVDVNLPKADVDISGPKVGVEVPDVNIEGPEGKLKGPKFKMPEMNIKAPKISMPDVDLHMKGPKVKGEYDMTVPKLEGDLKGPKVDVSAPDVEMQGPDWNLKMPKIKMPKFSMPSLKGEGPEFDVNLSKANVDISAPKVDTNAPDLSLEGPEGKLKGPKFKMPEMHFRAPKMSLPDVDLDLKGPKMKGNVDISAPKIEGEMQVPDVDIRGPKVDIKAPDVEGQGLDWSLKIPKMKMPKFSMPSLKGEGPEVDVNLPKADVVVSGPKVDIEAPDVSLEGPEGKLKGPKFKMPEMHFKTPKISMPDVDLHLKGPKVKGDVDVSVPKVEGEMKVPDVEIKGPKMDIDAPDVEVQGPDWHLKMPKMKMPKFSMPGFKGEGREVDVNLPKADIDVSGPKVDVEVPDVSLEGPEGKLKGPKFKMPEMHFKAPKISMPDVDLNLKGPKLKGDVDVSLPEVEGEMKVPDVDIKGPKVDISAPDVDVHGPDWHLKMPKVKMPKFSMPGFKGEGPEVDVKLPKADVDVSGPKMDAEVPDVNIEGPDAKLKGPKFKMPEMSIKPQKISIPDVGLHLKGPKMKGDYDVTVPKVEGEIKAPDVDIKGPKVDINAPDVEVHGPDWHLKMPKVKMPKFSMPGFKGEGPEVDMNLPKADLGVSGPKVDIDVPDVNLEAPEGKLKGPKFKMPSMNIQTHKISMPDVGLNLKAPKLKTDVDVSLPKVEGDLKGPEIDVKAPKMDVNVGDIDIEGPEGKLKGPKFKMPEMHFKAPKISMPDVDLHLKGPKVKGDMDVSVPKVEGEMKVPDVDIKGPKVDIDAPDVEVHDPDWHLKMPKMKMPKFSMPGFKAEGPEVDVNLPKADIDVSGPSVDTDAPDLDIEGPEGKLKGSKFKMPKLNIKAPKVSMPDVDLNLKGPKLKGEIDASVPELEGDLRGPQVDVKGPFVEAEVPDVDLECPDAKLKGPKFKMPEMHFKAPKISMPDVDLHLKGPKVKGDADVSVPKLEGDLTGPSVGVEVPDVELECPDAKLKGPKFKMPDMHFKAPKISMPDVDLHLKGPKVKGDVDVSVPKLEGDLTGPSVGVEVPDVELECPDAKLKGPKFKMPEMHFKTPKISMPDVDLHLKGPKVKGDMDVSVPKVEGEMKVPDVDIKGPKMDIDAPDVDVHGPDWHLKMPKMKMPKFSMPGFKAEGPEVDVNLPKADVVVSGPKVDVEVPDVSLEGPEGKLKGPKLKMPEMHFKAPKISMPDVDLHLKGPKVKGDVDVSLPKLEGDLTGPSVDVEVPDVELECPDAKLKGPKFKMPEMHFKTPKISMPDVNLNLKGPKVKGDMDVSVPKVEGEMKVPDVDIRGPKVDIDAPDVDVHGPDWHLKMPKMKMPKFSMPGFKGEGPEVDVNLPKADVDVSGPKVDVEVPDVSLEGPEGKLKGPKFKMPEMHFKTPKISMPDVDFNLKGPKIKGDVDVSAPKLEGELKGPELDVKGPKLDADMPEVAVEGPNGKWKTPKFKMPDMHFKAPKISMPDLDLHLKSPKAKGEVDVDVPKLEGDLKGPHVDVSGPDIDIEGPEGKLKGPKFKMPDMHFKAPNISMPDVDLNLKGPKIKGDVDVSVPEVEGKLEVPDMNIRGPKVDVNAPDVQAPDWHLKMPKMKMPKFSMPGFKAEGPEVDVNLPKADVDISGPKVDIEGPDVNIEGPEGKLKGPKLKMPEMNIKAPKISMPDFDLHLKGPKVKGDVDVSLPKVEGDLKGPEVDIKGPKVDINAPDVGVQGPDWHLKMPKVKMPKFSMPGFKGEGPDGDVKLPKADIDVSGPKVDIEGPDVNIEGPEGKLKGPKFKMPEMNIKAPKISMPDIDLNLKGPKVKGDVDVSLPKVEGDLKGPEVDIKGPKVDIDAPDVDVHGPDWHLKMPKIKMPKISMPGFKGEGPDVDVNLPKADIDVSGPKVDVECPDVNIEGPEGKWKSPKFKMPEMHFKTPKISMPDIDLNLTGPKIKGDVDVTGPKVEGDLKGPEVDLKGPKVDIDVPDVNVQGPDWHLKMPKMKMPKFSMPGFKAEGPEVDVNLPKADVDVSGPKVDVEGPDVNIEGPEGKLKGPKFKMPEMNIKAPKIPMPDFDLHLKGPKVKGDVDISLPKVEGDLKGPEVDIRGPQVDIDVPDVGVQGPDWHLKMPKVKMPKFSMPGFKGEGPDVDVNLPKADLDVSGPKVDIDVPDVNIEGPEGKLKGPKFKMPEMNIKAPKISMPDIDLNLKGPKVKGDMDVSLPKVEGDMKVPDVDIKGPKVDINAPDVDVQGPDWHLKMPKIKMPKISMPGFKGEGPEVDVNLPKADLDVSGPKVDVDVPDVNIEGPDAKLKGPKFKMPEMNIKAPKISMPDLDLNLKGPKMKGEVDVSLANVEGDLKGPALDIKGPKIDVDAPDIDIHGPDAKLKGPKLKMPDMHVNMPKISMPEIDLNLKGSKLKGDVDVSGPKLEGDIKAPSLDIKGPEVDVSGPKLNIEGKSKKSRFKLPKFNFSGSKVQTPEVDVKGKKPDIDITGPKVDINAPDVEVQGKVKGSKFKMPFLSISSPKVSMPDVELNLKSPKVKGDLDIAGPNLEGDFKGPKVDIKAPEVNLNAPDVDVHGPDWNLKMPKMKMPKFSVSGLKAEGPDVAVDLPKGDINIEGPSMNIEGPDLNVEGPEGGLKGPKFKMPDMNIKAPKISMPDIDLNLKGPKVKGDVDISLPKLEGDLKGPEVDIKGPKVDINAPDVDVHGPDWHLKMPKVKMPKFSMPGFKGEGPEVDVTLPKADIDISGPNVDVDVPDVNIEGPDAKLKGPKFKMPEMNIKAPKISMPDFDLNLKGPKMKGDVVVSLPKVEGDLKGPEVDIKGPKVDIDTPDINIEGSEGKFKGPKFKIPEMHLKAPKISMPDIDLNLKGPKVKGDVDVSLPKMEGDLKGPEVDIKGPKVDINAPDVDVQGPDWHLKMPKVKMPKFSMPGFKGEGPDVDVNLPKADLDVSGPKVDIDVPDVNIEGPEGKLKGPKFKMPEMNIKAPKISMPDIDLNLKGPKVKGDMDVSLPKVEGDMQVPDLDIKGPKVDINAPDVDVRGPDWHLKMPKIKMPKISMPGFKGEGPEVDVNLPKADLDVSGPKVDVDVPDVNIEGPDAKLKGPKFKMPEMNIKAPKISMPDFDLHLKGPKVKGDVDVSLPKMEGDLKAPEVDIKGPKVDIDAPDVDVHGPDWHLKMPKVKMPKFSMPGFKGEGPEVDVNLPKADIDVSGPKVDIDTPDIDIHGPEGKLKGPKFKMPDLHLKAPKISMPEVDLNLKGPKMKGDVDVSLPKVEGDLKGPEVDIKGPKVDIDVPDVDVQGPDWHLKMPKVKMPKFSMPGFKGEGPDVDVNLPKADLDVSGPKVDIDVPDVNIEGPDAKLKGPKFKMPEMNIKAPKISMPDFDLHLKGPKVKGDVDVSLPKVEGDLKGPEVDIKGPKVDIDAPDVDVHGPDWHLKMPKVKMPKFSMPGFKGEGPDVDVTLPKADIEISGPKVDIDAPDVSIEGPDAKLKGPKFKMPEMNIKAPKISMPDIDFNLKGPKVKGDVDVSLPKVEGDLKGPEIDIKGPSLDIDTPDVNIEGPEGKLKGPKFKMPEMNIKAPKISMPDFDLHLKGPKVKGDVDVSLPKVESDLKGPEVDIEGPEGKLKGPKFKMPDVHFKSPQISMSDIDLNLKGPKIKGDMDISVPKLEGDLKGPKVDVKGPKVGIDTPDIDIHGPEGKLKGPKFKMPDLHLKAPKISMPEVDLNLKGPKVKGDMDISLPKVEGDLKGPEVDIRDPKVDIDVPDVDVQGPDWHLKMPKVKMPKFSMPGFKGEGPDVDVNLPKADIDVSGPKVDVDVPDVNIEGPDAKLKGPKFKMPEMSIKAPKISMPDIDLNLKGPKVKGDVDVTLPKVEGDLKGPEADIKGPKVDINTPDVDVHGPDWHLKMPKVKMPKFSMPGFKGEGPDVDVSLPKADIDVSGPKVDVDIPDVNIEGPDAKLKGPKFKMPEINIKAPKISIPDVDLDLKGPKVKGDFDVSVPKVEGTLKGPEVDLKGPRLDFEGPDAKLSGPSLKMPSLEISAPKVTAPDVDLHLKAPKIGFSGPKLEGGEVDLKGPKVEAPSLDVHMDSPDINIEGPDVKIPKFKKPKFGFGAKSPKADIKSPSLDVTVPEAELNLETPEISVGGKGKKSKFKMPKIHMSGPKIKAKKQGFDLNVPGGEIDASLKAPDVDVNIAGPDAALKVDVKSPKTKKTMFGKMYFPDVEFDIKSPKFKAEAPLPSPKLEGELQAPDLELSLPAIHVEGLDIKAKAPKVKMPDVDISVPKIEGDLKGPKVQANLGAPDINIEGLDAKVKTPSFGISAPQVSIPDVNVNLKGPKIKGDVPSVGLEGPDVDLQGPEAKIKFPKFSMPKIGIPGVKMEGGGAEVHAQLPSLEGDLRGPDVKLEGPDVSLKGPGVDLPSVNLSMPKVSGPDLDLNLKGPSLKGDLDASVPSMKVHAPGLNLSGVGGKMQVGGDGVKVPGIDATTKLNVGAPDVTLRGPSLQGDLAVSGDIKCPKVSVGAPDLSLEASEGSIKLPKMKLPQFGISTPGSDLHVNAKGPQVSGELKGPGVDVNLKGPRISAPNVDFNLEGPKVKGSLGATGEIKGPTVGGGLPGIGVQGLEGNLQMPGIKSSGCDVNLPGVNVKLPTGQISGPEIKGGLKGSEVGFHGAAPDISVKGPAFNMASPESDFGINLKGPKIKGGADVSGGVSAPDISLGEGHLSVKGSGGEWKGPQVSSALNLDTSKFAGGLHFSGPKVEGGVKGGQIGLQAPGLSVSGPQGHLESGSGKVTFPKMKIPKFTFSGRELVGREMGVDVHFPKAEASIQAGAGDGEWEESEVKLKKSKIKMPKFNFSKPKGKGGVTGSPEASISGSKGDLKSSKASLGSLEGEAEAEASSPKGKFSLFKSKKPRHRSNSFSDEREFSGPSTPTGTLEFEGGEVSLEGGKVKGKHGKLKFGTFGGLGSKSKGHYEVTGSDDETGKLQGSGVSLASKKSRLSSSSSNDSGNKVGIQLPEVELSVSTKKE"}, "source": "the supplement of paper PMC6411743", "note": "± gives the standard deviation of the averaged measurements. Some of the results follow."}
{"compound": "Nc1nc2c(ncn2[C@@H]2O[C@H](COP(=O)(O)OP(=O)(O)OP(=O)(O)O)[C@@H](O)[C@H]2O)c(=O)[nH]1 [guanosine triphosphate]", "assay": "NP40-soluble protein abundance relative to vehicle (solubility fold change) (ratio); higher = more soluble protein in presence of GTP", "details": "concentration: 6mM", "in_short": "(§1)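 Jurkat crude lysate (Dounce-homogenised) was treated with eight concentrations from 0.1 to 10 mM for 10 min at room temperature, then 3 min at 37 °C. It was solubilised with 0.8% NP40 and benzonase (60 min, 4 °C) and ultracentrifuged, and the supernatant was TMT-labelled for LC-MS/MS. Intensities were vsn-normalised, and the value is the fold change against the NP40-processed vehicle per replicate, from three independent experiments.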"}
{"target": "SOX4 (UniProt Q06945)", "NP40-soluble protein abundance": "0.978 ± 0.092"}
{"target": "MORC3 (UniProt Q14149)", "NP40-soluble protein abundance": "0.95 ± 0.05"}
{"target": "UniProt Q12872 and related entries", "NP40-soluble protein abundance": "1.52 ± 0.068"}
{"target": "UniProt Q03933-2", "NP40-soluble protein abundance": "0.961 ± 0.055"}
{"target": "CD47 (UniProt Q08722)", "NP40-soluble protein abundance": "0.838 ± 0.068"}
{"target": "UniProt Q14161 and related entries", "NP40-soluble protein abundance": "0.993 ± 0.05"}
{"target": "MTM1 (UniProt Q13496)", "NP40-soluble protein abundance": "0.962 ± 0.093"}
{"target": "UniProt Q14677 and related entries", "NP40-soluble protein abundance": "0.959 ± 0.079"}
{"target": "IK (UniProt Q13123)", "NP40-soluble protein abundance": "1.14 ± 0.074"}
{"target": "UniProt Q14444 and related entries", "NP40-soluble protein abundance": "1.11 ± 0.1"}
{"target": "UniProt Q12800 and related entries", "NP40-soluble protein abundance": "1.02 ± 0.034"}
{"target": "UniProt Q14139 and related entries", "NP40-soluble protein abundance": "0.948 ± 0.047"}
{"target": "UniProt Q13868 and related entries", "NP40-soluble protein abundance": "1.1 ± 0.12"}
{"target": "UniProt Q13588 and related entries", "NP40-soluble protein abundance": "0.966 ± 0.044"}
{"target": "FHL3 (UniProt Q13643)", "NP40-soluble protein abundance": "1.08 ± 0.16"}
{"target": "UniProt Q14197", "NP40-soluble protein abundance": "1.54 ± 0.51"}
{"target": "ITK (UniProt Q08881)", "NP40-soluble protein abundance": "0.913 ± 0.11"}
{"target": "SAFB2 (UniProt Q14151)", "NP40-soluble protein abundance": "1.07 ± 0.081"}
{"target": "UniProt Q01813 and related entries", "NP40-soluble protein abundance": "1.06 ± 0.09"}
{"target": "UniProt Q02447-3", "NP40-soluble protein abundance": "1.01 ± 0.084"}
{"target": "UniProt Q14669-2|Q14669-3", "NP40-soluble protein abundance": "1.25 ± 0.095"}
{"target": "THOC5 (UniProt Q13769)", "NP40-soluble protein abundance": "2.3 ± 0.66"}
{"target": "DHX34 (UniProt Q14147)", "NP40-soluble protein abundance": "1.13 ± 0.058"}
{"target": "NFX1 (UniProt Q12986)", "NP40-soluble protein abundance": "1.4 ± 0.014"}
{"target": "UniProt Q02252 and related entries", "NP40-soluble protein abundance": "0.924 ± 0.021"}
{"target": "AHNAK (UniProt Q09666)", "NP40-soluble protein abundance": "0.977 ± 0.06"}
{"target": "UniProt Q14247 and related entries", "NP40-soluble protein abundance": "1.04 ± 0.06"}
{"target": "MAD2L1 (UniProt Q13257)", "NP40-soluble protein abundance": "0.899 ± 0.066"}
{"target": "PMPCA (UniProt Q10713)", "NP40-soluble protein abundance": "0.904 ± 0.025"}
{"target": "UniProt Q14289-2|Q14289", "NP40-soluble protein abundance": "0.943 ± 0.051"}
{"target": "UniProt Q13085 and related entries", "NP40-soluble protein abundance": "1.04 ± 0.097"}
{"target": "ECH1 (UniProt Q13011)", "NP40-soluble protein abundance": "0.927 ± 0.044"}
{"target": "PPID (UniProt Q08752)", "NP40-soluble protein abundance": "0.846 ± 0.074"}
{"target": "DNAJC3 (UniProt Q13217)", "NP40-soluble protein abundance": "0.931 ± 0.031"}
{"target": "UniProt Q01196-11|Q01196-8|Q01196", "NP40-soluble protein abundance": "1.15 ± 0.08"}
{"target": "RNASEL (UniProt Q05823)", "NP40-soluble protein abundance": "1.05 ± 0.027"}
{"target": "UniProt Q01968 and related entries", "NP40-soluble protein abundance": "1.04 ± 0.03"}
{"compound": "Nc1nc2c(ncn2[C@@H]2O[C@H](COP(=O)(O)OP(=O)(O)OP(=O)(O)O)[C@@H](O)[C@H]2O)c(=O)[nH]1 [guanosine triphosphate]", "assay": "NP40-soluble protein abundance relative to vehicle (solubility fold change) (ratio); higher = more soluble protein in presence of GTP", "details": "concentration: 8mM", "in_short": "as §1"}
{"target": "SOX4 (UniProt Q06945)", "NP40-soluble protein abundance": "0.977 ± 0.074"}
{"target": "MORC3 (UniProt Q14149)", "NP40-soluble protein abundance": "0.947 ± 0.042"}
{"target": "UniProt Q12872 and related entries", "NP40-soluble protein abundance": "1.7 ± 0.13"}
{"target": "UniProt Q03933-2", "NP40-soluble protein abundance": "1.09 ± 0.031"}
{"target": "CD47 (UniProt Q08722)", "NP40-soluble protein abundance": "0.779 ± 0.086"}
{"target": "UniProt Q14161 and related entries", "NP40-soluble protein abundance": "1 ± 0.083"}
{"target": "MTM1 (UniProt Q13496)", "NP40-soluble protein abundance": "0.93 ± 0.057"}
{"target": "UniProt Q14677 and related entries", "NP40-soluble protein abundance": "0.98 ± 0.061"}
{"target": "IK (UniProt Q13123)", "NP40-soluble protein abundance": "1.22 ± 0.074"}
{"target": "UniProt Q14444 and related entries", "NP40-soluble protein abundance": "1.16 ± 0.057"}
{"target": "UniProt Q12800 and related entries", "NP40-soluble protein abundance": "0.994 ± 0.098"}
{"target": "UniProt Q14139 and related entries", "NP40-soluble protein abundance": "0.975 ± 0.043"}
{"target": "UniProt Q13868 and related entries", "NP40-soluble protein abundance": "1.04 ± 0.033"}
{"target": "UniProt Q13588 and related entries", "NP40-soluble protein abundance": "0.946 ± 0.025"}
{"target": "FHL3 (UniProt Q13643)", "NP40-soluble protein abundance": "1.13 ± 0.15"}
{"target": "UniProt Q14197", "NP40-soluble protein abundance": "1.48 ± 0.53"}
{"target": "ITK (UniProt Q08881)", "NP40-soluble protein abundance": "0.857 ± 0.076"}
{"target": "SAFB2 (UniProt Q14151)", "NP40-soluble protein abundance": "1.14 ± 0.078"}
{"target": "UniProt Q01813 and related entries", "NP40-soluble protein abundance": "1.04 ± 0.075"}
{"target": "UniProt Q02447-3", "NP40-soluble protein abundance": "1.08 ± 0.055"}
{"target": "UniProt Q14669-2|Q14669-3", "NP40-soluble protein abundance": "1.31 ± 0.13"}
{"target": "THOC5 (UniProt Q13769)", "NP40-soluble protein abundance": "2.45 ± 0.77"}
{"target": "DHX34 (UniProt Q14147)", "NP40-soluble protein abundance": "1.25 ± 0.14"}
{"target": "NFX1 (UniProt Q12986)", "NP40-soluble protein abundance": "1.46 ± 0.093"}
{"target": "UniProt Q02252 and related entries", "NP40-soluble protein abundance": "0.901 ± 0.056"}
{"target": "AHNAK (UniProt Q09666)", "NP40-soluble protein abundance": "1.01 ± 0.03"}
{"target": "UniProt Q14247 and related entries", "NP40-soluble protein abundance": "1.11 ± 0.1"}
{"target": "MAD2L1 (UniProt Q13257)", "NP40-soluble protein abundance": "0.851 ± 0.016"}
{"target": "PMPCA (UniProt Q10713)", "NP40-soluble protein abundance": "0.866 ± 0.014"}
{"target": "UniProt Q14289-2|Q14289", "NP40-soluble protein abundance": "0.95 ± 0.061"}
{"target": "UniProt Q13085 and related entries", "NP40-soluble protein abundance": "0.975 ± 0.072"}
{"target": "ECH1 (UniProt Q13011)", "NP40-soluble protein abundance": "0.871 ± 0.028"}
{"target": "PPID (UniProt Q08752)", "NP40-soluble protein abundance": "0.842 ± 0.052"}
{"target": "DNAJC3 (UniProt Q13217)", "NP40-soluble protein abundance": "0.897 ± 0.024"}
{"target": "UniProt Q01196-11|Q01196-8|Q01196", "NP40-soluble protein abundance": "1.19 ± 0.092"}
{"target": "RNASEL (UniProt Q05823)", "NP40-soluble protein abundance": "1.1 ± 0.029"}
{"target": "UniProt Q01968 and related entries", "NP40-soluble protein abundance": "1.11 ± 0.068"}
{"compound": "Nc1nc2c(ncn2[C@@H]2O[C@H](COP(=O)(O)OP(=O)(O)OP(=O)(O)O)[C@@H](O)[C@H]2O)c(=O)[nH]1 [guanosine triphosphate]", "assay": "NP40-soluble protein abundance relative to vehicle (solubility fold change) (ratio); higher = more soluble protein in presence of GTP", "details": "concentration: 10mM", "in_short": "as §1"}
{"target": "SOX4 (UniProt Q06945)", "NP40-soluble protein abundance": "1.03 ± 0.085"}
{"target": "MORC3 (UniProt Q14149)", "NP40-soluble protein abundance": "0.92 ± 0.034"}
{"target": "UniProt Q12872 and related entries", "NP40-soluble protein abundance": "1.78 ± 0.13"}
{"target": "UniProt Q03933-2", "NP40-soluble protein abundance": "0.917 ± 0.043"}
{"target": "CD47 (UniProt Q08722)", "NP40-soluble protein abundance": "0.814 ± 0.055"}
{"target": "UniProt Q14161 and related entries", "NP40-soluble protein abundance": "0.996 ± 0.096"}
{"target": "MTM1 (UniProt Q13496)", "NP40-soluble protein abundance": "0.891 ± 0.087"}
{"target": "UniProt Q14677 and related entries", "NP40-soluble protein abundance": "0.98 ± 0.08"}
{"target": "IK (UniProt Q13123)", "NP40-soluble protein abundance": "1.24 ± 0.095"}
{"target": "UniProt Q14444 and related entries", "NP40-soluble protein abundance": "1.13 ± 0.11"}
{"target": "UniProt Q12800 and related entries", "NP40-soluble protein abundance": "0.987 ± 0.064"}
{"target": "UniProt Q14139 and related entries", "NP40-soluble protein abundance": "0.935 ± 0.07"}
{"target": "UniProt Q13868 and related entries", "NP40-soluble protein abundance": "1.06 ± 0.084"}
{"target": "UniProt Q13588 and related entries", "NP40-soluble protein abundance": "0.929 ± 0.099"}
{"target": "FHL3 (UniProt Q13643)", "NP40-soluble protein abundance": "1.17 ± 0.19"}
{"target": "UniProt Q14197", "NP40-soluble protein abundance": "1.41 ± 0.52"}
{"target": "ITK (UniProt Q08881)", "NP40-soluble protein abundance": "0.862 ± 0.13"}
{"target": "SAFB2 (UniProt Q14151)", "NP40-soluble protein abundance": "1.2 ± 0.079"}
{"target": "UniProt Q01813 and related entries", "NP40-soluble protein abundance": "0.983 ± 0.06"}
{"target": "UniProt Q02447-3", "NP40-soluble protein abundance": "1.05 ± 0.016"}
{"target": "UniProt Q14669-2|Q14669-3", "NP40-soluble protein abundance": "1.31 ± 0.13"}
{"target": "THOC5 (UniProt Q13769)", "NP40-soluble protein abundance": "2.37 ± 0.74"}
{"target": "DHX34 (UniProt Q14147)", "NP40-soluble protein abundance": "1.09 ± 0.033"}
{"target": "NFX1 (UniProt Q12986)", "NP40-soluble protein abundance": "1.518 ± 0.0029"}
{"target": "UniProt Q02252 and related entries", "NP40-soluble protein abundance": "0.894 ± 0.074"}
{"target": "AHNAK (UniProt Q09666)", "NP40-soluble protein abundance": "0.998 ± 0.044"}
{"target": "UniProt Q14247 and related entries", "NP40-soluble protein abundance": "1.07 ± 0.065"}
{"target": "MAD2L1 (UniProt Q13257)", "NP40-soluble protein abundance": "0.84 ± 0.082"}
{"target": "PMPCA (UniProt Q10713)", "NP40-soluble protein abundance": "0.867 ± 0.067"}
{"target": "UniProt Q14289-2|Q14289", "NP40-soluble protein abundance": "0.915 ± 0.06"}
{"target": "UniProt Q13085 and related entries", "NP40-soluble protein abundance": "0.956 ± 0.056"}
{"target": "ECH1 (UniProt Q13011)", "NP40-soluble protein abundance": "0.904 ± 0.01"}
{"target": "PPID (UniProt Q08752)", "NP40-soluble protein abundance": "0.841 ± 0.068"}
{"target": "DNAJC3 (UniProt Q13217)", "NP40-soluble protein abundance": "0.887 ± 0.047"}
{"target": "UniProt Q01196-11|Q01196-8|Q01196", "NP40-soluble protein abundance": "1.19 ± 0.12"}
{"target": "RNASEL (UniProt Q05823)", "NP40-soluble protein abundance": "1.03 ± 0.056"}
{"target": "UniProt Q01968 and related entries", "NP40-soluble protein abundance": "0.993 ± 0.068"}
